Results deposited as PubChem BioAssay AID1508588 (Peter MacCallum Cancer Centre, 2020).
Aim: 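Genome-wide search for knock-downs that heighten vemurafenib action in melanoma cells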 (primary screen). System: human WM266.4 melanoma cells (BRAF V600 mutant). Reagent: siRNA pool against human genes, 40 nM. Duration: 96 h from transfection to read-out. Conditions: vemurafenib 300 nM (about IC25), added 48 h after transfection, for 48 h; comparison arm got DMSO vehicle only. Detection: 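Ratios to non-targeting siRNA for cell gain, counted as DAPI nuclei after minus before drug and averaged over two replicates, and for absorbance-read medium lactate per cell; both binned into fold-change classes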. Scale: cell gain with vemurafenib: higher = more cell gain than with non-targeting siRNA; lactate per cell with vemurafenib: higher = more lactate made per cell. Rule for the call: 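a knock-down counts as enhancing when its fold-change classes with vehicle and with vemurafenib, taken together, show a stronger drug effect on cell gain or lactate per cell; exact class pairs not stated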. Meaning of the calls: active = enhances vemurafenib effect; inactive = no enhancement seen.
Shown is a random part of about 18,000 deposited reagents. 790 of all reagents (4.4%) count as active. 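Calls rest on a combination of fold-change classes in drug and vehicle arms, not all shown here.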 Unmarked entries are inactive. Reagent sequences are not shown.

gene | cell gain with vemurafenib | lactate per cell with vemurafenib
XKRY | 0.5 | 1.1
PCYT1A | 0.41 | 0.77
PEPD | 0.42 | 1.01
PDE4B | 1.03 | 0.77
OFCC1 | 0.66 | 0.57
ACTC1 | 1.08 | 0.7
SLC4A2 | 0.62 | 0.96
FAM174C | 0.53 | 0.84
AZGP1 | 0.43 | 0.59
MAP6D1 | -0.07 | 0.27
DDR2 | 0.72 | 0.7
LIN54 | -0.1 | 2.63
LRWD1 | 0.8 | 0.51
APOA4 | 0.92 | 0.76
FOSB | 0.52 | 0.87
OR10H5 | 1.09 | 0.69
SSPOP | 0.62 | 1.02
KRTAP10-10 | -0.12 (active) | -0.34
CTDP1 | 0.66 | 0.74
EFNA4 | 0.51 | 1.94
DTNB | 0.58 | 1.52
TP53I13 | 0.55 | 1.29
MTX2 | 0.57 | 0.8
GRIA3 | 0.78 | 0.38
TASOR | 0.49 | 1.58
GPD1 | 0.73 | 0.64
DFFA | 0.72 | 1.17
SSBP2 | 0.47 | 0.83
SERF2 | 0.46 | 1.3
PIH1D1 | 0.58 | 0.88
EFCAB7 | 0.25 | 1.82
CTAGE6 | 0.32 | 1.58
BAHD1 | 1.07 | 0.79
BEND3 | 0.8 | 0.91
FGD1 | 0.03 | 1.01
TPH2 | 0.65 | 1.08
MUL1 | 1.17 | 0.88
A3GALT2 | 0.69 | 0.92
PDIK1L | 0.7 (active) | 0.4
HPSE2 | -0.06 (active) | 0.01
OR4A47 | 0.29 | 0.46
FAM78B | 0.77 | 0.92
ADSS1 | 0.31 | 2.17
KIAA2013 | 0.35 | 1.3
SLC13A1 | 1.02 | 0.7
ZNF572 | 0.45 | 0.66
TJP3 | 0.28 | 0.54
EIF4G2 | 0.78 | 0.44
C2CD3 | 0.71 | 0.73
KDM4D | 0.14 | 1.3
TBC1D10B | 0.65 | 0.6
PROS1 | 0.64 | 1.15
PIP4K2B | 0.68 | 1.08
PDCD6 | 0.56 | 1.08
DDX23 | 0.26 | 1.51
RPL29 | 0 (active) | 0.12
CIRBP-AS1 | 0.66 | 0.95

5 entries already listed, sorted by “lactate per cell with vemurafenib”, descending.
gene | cell gain with vemurafenib | lactate per cell with vemurafenib
LIN54 | -0.1 | 2.63
DDR2 | 0.72 | 0.7
AZGP1 | 0.43 | 0.59
LRWD1 | 0.8 | 0.51
MAP6D1 | -0.07 | 0.27
